# The list shows a part of the results.
# Sequences of proteins named here, by UniProt entry; tags and fusion partners are left off. A change or cut given only in a name is not applied to a line headed by its entry.
# UniProt Q9NYH9: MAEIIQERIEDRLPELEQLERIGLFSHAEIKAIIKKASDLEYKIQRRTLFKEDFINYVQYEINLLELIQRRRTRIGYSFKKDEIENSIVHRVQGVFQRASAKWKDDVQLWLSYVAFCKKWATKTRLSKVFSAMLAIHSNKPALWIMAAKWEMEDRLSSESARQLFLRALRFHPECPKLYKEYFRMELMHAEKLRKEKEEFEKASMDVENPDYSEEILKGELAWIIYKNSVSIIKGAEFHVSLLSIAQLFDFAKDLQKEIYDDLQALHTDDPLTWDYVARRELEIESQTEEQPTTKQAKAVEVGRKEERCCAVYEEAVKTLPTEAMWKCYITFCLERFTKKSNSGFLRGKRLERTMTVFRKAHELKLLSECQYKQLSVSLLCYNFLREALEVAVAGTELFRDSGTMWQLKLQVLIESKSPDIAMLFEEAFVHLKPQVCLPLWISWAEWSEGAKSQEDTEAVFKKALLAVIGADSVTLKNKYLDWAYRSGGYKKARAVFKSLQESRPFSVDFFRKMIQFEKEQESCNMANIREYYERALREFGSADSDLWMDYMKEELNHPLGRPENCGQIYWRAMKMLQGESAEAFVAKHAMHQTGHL
# UniProt P52735: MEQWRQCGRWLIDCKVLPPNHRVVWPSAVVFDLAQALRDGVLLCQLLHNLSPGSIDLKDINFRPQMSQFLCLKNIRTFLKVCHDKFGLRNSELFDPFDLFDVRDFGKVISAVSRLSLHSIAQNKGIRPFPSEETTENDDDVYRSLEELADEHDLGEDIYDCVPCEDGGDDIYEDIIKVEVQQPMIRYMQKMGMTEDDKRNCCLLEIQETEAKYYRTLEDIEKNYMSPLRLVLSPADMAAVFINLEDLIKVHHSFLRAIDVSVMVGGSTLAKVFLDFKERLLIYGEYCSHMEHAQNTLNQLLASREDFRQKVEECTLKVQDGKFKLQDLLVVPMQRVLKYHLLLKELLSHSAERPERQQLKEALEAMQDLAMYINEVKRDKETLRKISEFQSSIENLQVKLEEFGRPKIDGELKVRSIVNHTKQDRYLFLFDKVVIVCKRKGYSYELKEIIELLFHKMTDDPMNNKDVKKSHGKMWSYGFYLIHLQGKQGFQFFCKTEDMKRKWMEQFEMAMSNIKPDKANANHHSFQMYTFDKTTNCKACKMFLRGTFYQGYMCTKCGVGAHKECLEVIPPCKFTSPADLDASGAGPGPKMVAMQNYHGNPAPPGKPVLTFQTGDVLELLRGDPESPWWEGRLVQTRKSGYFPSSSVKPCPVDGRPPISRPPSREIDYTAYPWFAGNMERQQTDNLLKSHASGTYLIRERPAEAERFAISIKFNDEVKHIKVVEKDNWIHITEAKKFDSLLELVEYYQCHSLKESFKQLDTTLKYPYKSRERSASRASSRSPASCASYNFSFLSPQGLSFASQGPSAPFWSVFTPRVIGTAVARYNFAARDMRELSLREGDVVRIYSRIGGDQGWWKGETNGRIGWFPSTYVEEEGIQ
# UniProt Q9BTA9: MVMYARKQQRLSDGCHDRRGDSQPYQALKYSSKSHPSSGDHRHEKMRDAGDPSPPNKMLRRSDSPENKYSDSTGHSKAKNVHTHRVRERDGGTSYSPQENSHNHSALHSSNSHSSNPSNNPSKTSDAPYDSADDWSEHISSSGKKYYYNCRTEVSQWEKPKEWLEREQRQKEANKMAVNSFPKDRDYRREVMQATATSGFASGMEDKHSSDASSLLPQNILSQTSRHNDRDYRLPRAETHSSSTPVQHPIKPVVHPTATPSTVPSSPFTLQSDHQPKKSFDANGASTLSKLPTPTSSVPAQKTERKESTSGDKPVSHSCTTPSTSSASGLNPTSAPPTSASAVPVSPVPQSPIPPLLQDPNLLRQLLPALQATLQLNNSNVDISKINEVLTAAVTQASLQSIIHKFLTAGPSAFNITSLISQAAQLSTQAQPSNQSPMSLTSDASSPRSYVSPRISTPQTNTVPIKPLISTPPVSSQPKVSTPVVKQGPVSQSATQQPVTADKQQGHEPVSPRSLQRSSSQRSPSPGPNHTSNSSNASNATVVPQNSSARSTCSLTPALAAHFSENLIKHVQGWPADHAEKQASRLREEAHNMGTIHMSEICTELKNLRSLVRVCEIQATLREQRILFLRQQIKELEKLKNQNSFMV
# UniProt Q99986: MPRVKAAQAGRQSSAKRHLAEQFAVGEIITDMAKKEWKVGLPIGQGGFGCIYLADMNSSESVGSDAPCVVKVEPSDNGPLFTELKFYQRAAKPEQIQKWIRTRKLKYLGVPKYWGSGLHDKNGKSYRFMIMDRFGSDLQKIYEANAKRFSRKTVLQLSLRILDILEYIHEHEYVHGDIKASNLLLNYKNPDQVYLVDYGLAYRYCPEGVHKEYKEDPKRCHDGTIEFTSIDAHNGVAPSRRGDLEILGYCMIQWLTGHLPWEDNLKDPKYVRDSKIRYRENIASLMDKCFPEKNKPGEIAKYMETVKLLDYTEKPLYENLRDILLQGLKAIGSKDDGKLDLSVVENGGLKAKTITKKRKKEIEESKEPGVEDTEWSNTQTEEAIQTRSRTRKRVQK
# UniProt Q96JH7: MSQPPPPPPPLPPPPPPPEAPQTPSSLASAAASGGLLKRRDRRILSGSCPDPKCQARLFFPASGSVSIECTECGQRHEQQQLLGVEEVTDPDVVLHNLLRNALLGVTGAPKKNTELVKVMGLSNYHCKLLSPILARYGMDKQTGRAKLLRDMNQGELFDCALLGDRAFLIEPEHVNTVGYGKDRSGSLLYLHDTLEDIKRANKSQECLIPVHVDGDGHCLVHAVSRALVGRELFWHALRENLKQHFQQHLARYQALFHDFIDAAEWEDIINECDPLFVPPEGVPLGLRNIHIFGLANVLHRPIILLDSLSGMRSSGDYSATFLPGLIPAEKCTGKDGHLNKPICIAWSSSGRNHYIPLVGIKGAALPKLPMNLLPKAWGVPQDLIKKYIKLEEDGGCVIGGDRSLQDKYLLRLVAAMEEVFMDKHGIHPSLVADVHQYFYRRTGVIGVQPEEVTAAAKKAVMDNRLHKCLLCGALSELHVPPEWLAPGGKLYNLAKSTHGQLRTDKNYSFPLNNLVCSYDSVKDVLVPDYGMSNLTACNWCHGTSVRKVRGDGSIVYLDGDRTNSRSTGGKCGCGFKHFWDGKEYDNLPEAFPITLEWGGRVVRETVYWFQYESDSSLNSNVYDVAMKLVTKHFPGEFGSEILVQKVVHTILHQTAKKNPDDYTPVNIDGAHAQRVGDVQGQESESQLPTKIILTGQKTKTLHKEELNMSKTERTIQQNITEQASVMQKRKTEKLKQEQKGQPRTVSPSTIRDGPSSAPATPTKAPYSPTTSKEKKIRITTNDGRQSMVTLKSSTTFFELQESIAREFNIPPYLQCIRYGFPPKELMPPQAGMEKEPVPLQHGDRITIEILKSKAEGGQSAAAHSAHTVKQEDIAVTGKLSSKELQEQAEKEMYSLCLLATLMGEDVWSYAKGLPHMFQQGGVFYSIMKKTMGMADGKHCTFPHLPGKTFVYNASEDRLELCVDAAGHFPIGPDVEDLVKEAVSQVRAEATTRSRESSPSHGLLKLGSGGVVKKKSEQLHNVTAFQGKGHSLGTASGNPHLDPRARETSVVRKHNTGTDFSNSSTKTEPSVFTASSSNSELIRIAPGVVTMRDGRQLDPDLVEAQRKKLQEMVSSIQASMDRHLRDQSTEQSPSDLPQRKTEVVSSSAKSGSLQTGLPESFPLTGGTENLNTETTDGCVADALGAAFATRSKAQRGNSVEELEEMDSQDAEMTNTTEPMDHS
# UniProt P23381: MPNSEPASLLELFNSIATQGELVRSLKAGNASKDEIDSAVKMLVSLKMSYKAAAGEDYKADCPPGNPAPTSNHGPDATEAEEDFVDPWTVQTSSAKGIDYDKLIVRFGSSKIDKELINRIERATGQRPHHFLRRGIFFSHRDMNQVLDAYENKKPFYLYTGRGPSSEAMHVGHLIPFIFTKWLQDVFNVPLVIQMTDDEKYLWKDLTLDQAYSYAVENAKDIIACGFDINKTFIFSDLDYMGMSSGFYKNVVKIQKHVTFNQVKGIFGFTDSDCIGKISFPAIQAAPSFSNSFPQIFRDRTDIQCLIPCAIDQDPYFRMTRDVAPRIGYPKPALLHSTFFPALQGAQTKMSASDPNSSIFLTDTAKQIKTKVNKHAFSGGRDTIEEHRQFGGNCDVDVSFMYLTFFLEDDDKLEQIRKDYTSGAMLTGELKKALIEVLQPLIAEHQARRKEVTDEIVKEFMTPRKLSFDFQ
# UniProt P18206: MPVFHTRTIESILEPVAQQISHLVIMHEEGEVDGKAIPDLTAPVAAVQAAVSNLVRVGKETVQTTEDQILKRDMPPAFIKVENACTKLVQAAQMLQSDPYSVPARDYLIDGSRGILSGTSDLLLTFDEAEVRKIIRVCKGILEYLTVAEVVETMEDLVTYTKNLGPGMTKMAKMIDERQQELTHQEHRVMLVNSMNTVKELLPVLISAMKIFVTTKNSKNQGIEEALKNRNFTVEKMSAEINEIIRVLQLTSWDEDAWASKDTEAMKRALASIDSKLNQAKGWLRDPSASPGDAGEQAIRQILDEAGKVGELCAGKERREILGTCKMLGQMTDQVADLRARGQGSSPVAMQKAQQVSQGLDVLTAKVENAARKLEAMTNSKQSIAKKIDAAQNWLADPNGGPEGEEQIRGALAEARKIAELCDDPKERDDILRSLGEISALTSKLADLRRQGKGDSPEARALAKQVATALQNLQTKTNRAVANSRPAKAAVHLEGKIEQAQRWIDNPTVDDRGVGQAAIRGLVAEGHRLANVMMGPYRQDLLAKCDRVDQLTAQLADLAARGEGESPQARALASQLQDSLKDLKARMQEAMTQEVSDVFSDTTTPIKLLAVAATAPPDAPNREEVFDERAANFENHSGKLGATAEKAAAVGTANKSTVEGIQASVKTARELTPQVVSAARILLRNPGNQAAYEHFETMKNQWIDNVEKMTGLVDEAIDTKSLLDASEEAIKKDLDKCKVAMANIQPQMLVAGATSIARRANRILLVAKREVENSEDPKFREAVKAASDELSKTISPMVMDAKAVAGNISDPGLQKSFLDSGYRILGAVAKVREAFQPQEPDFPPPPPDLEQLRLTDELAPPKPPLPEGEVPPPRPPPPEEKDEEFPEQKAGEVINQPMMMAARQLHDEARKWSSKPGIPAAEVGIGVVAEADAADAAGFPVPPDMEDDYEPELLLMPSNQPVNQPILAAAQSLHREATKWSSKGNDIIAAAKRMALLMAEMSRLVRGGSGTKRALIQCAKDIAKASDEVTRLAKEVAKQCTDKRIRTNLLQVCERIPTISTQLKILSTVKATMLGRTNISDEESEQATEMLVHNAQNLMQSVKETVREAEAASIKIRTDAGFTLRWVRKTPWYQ
# UniProt P49754: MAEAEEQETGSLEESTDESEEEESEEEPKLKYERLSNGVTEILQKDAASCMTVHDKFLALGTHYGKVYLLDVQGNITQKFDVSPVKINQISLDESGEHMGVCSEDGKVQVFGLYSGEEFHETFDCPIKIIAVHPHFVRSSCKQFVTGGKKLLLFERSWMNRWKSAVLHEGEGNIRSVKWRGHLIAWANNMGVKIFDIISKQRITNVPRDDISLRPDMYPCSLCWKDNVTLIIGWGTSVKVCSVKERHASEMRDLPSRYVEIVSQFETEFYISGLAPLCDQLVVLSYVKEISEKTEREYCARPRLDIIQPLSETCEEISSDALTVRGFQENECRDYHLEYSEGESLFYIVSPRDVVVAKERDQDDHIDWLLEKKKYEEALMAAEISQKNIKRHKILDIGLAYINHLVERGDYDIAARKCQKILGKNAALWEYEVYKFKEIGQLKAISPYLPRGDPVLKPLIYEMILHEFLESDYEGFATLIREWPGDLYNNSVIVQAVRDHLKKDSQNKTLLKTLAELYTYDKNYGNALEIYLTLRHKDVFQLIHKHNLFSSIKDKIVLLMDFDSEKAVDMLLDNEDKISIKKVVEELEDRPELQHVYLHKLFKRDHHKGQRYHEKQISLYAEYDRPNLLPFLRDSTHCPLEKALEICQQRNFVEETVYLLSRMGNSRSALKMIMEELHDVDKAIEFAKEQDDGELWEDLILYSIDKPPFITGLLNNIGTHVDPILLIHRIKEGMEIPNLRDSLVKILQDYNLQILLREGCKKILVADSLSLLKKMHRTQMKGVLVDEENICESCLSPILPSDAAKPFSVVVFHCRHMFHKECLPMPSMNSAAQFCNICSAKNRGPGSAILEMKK
# Compound: Cc1cc(ccc1-c1ccccc1)C(=O)N1CCCN(CC1)C(=O)CCl [compound 10]
# Experiment: probe-labelled cysteine peptide fold change vs DMSO (competition) (log2 fold change); higher = less target engagement (more negative = stronger competition)
# Details: THP-1, incubation time: 4 h
# 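Note: competitive profiling in live THP-1 cells: cysteine peptides tagged with an iodoacetamide desthiobiotin (IA-DTB) probe, intensity after compound treatment relative to DMSO-treated cells.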
Target,probe-labelled cysteine peptide fold change (10 µM),probe-labelled cysteine peptide fold change (50 µM)
UTP6_Q9NYH9_328_CYITFCLER (UniProt Q9NYH9),-0.197,-0.0538
VAV2_P52735_44_DGVLLCQLLHNLSPGSIDLK (UniProt P52735),-0.151,0.39
WAC_Q9BTA9_615_VCEIQATLR (UniProt Q9BTA9),0.222,0.307
VAT1L_Q9HCJ6_253+255_ISAEGVDIVLDCLCGDNTGK (UniProt Q9HCJ6),0.388,-0.997
VRK1_Q99986_220_CHDGTIEFTSIDAHNGVAPSRR (UniProt Q99986),-0.238,-0.155
VCPIP1_Q96JH7_127_VMGLSNYHCK (UniProt Q96JH7),-0.166,-0.653
WARS_P23381_309_DRTDIQCLIPCAIDQDPYFR (UniProt P23381),0.181,0.228
VPS8_Q8N3P4_925_IIDCYLRDPLREEEVFNYIHNILSIPGHSAEEK (UniProt Q8N3P4),0.153,-0.0136
VEZF1_Q14119_327_TCMSEETSNQK (UniProt Q14119),-0.0764,-0.523
USP9X_Q93008_2398_CMVALFSNCPVAYQILQGNGDLK (UniProt Q93008),0.129,0.0717
VCL_P18206_1018_ALIQCAK (UniProt P18206),0.202,0.118
VIM_P08670_328_RQVQSLTCEVDALK (UniProt P08670),0.00911,-0.139
VPS41_P49754_102_INQISLDESGEHMGVCSEDGK (UniProt P49754),0.0123,0.229
VLDLR_P98155_40_CEPSQFQCTNGR (UniProt P98155),-0.103,-0.313

# Laid out differently: results already given.
Target	probe-labelled cysteine peptide fold change (10 µM)	probe-labelled cysteine peptide fold change (50 µM)
UTP6_Q9NYH9_328_CYITFCLER (UniProt Q9NYH9)	-0.197	-0.0538
VCPIP1_Q96JH7_127_VMGLSNYHCK (UniProt Q96JH7)	-0.166	-0.653

# — the supplement of paper PMC12067093, “Discovery and optimisation of a covalent ligand for TRIM25 and its application to targeted protein ubiquitination” (Chemical Science, 2025)
